Data from PubChem BioAssay AID485314 (National Center for Advancing Translational Sciences (NCATS), 2010).
Screen size: about 340,000 compounds; about 4,500 (1.3%) were called active. Inconclusive means that the source gave no clear call. Such entries were picked first, then a sample of the others. Calls come from the whole dose curve; as a rule, active = well fitted inhibition curve with a large enough effect; inconclusive = small, poorly fitted or top-dose-only effect, or another doubt; inactive = no such curve, though single readings can be large or run the other way. A potency beside an inconclusive call is a rough fit, not a confirmed value.

target: DNA polymerase beta (Homo sapiens) (UniProt P06746); assay: qHTS Assay for Inhibitors of DNA Polymerase Beta; settings: Pol beta primer extension/strand displacement, fluorescence kinetic; activity change, negative = inhibition: at 114 µM (top of the series)
Summary of the method: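 Preincubation: enzyme (10 nM) with compound, 15 min, RT. Reaction: substrate added to 50 nM final. Reads: 0 and 10 min. Analysis: normalized, Hill fit.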
% is set by controls: 0 for no effect and ±100 for the full control effect; potency is the fitted concentration of half-maximal effect.

SMILES | activity change, negative = inhibition | Potency
O=C(/C=C/c1ccc2ccccc2n1)N1CCN(S(=O)(=O)c2ccc(F)cc2)CC1 | inconclusive: -75.5% [inhibitor] | –
COc1ccc(NC(=O)c2ccc3c(c2)CCN3S(=O)(=O)c2ccccc2)cc1 | inconclusive: -32.3% [inhibitor] | –
O=C(O)[C@H](Cc1ccccc1)NC(=O)N1CCN(c2ccc(F)cc2)CC1 | – | inconclusive: 0.158 µM [inhibitor, full curve, poor fit]
Cc1ccc(-c2cc(C(=O)Nc3cccnc3)c3ccccc3n2)o1 | – | inconclusive: 22.4 µM [inhibitor, full curve]
O=C(CCc1nc2sc3c(c2c(=O)[nH]1)CCCC3)NCCc1ccc(F)cc1 | – | active: 22.4 µM
Cc1ccc(-n2nnnc2SCc2nnc(-c3ccccc3Br)o2)cc1 | – | inconclusive: 28.2 µM [inhibitor, partial curve]
CCOc1cc(/C=N/Nc2ccccc2Cl)ccc1OCC(=O)O | – | inconclusive: 14.1 µM [inhibitor, full curve]
CCCCCCCn1c(=O)c(C(=O)OC)c(N)c2ccccc21 | – | inactive
Cc1scc(C(=O)NCc2ccco2)c1-c1ccccc1 | – | active: 22.4 µM
COc1ccccc1NC(=O)Cn1nc(C)n2cccc2c1=O | – | inconclusive: 3.16 µM [inhibitor, full curve]
COc1ccc(OC)c(NC(=O)c2cc3cc4ccc(C)cc4nc3s2)c1 | – | inactive
O=C(NCc1ccccn1)c1nn(-c2ccccc2F)nc1CO | – | inactive
COc1ccc(-c2cc(=O)c3cc(OC)ccc3[nH]2)cc1 | – | inactive
O=C(O)/C=C/C(=O)NNc1ccc([N+](=O)[O-])cc1 | – | inconclusive: 79.4 µM [inhibitor, single point]
CCOC(=O)c1sc(C)c2c(=O)n(CC(=O)c3ccc(Br)cc3)nnc12 | – | inconclusive: 22.4 µM [inhibitor, single point]
CC(=O)C1=C(c2ccccc2)NC(=S)NC1c1ccc(O)c(O)c1 (stereo not drawn) | – | active: 3.98 µM
C=CCn1c(N)c(-c2nc3ccccc3n2C)sc1=S | – | inconclusive: 79.4 µM [inhibitor, single point]
C/C=C/C=C/[C@H]1Cc2cc(O)cc(O)c2O1 | – | active: 50.1 µM
COc1ccc2[nH]c3c(=O)n(CCCCC(=O)N4CCCC4)c(=S)[nH]c3c2c1 | – | inconclusive: 50.1 µM [inhibitor, partial curve]
COc1ccc(S(=O)(=O)NNC(=O)c2csc(-n3nc(C)cc3C(F)(F)F)n2)cc1OC | – | inconclusive: 100 µM [inhibitor, single point]
O=C(CSc1nc2ccccc2nc1Cc1ccccc1)N1CCCc2ccccc21 | – | inactive
COc1cccc(-c2csc3nnc(SCC(=O)c4ccc(NC(C)=O)cc4)n23)c1 | – | inconclusive: 100 µM [inhibitor, single point]
O=C(O)C1CN(CCCP(=O)(O)O)CCN1 (stereo not drawn) | – | inactive

SMILES | activity change, negative = inhibition | Potency
CC(=O)c1ccc(NC(=O)CN2CCC(C(=O)c3ccc4c(c3)OCCO4)CC2)cc1 | – | inconclusive: 89.1 µM [inhibitor, single point]
Cc1cc(S(=O)(=O)N2CCCC2)ccc1OCC(=O)NCc1ccco1 | – | active: 25.1 µM
O=P(O)(O)COc1ccccc1P(=O)(c1ccccc1)c1ccccc1 | – | inconclusive: 89.1 µM [inhibitor, single point]
CCC(C)NS(=O)(=O)c1ccc(OCC(=O)N2CCCCC2)cc1 (stereo not drawn) | – | inconclusive: 89.1 µM [inhibitor, single point]
CCOc1ccc(C(=O)C[n+]2ccc(C(=O)NCCO)cc2)cc1 | – | inconclusive: 100 µM [inhibitor, single point]
CCCCc1nn2c(=O)cc(COC(=O)c3cccs3)nc2s1 | – | inconclusive: 89.1 µM [inhibitor, single point]
O=C(NNC(=O)c1ccc(S(=O)(=O)N2CCCCC2)cc1)c1ccccc1 | – | inconclusive: 100 µM [inhibitor, single point]
Cn1nc(C(=O)NCc2ccccc2)c2ccccc2c1=O | – | inconclusive: 89.1 µM [inhibitor, single point]
O=C(O)CCn1c(C(=O)O)cc2sccc21 | – | inconclusive: 20 µM [inhibitor, full curve, poor fit]
COc1ccc(CNC(=O)c2cccc(NC3=NC4CS(=O)(=O)CC4S3)c2)cc1 (stereo not drawn) | – | inconclusive: 44.7 µM [inhibitor, partial curve, poor fit]
O=C(O)c1ccc2c(c1)S(=O)(=O)c1ccccc1C2=O | – | inactive
CCCCCCc1c(C)c2ccc(OCC(=O)N[C@@H](Cc3ccccc3)C(=O)O)cc2oc1=O | – | inactive
COc1cccc(/C=N/n2c(-c3cccs3)n[nH]c2=S)c1 | – | inconclusive: 14.1 µM [inhibitor, partial curve]
CCN(CC)C(=O)CSc1nnnn1-c1ccc(F)c(Cl)c1 | – | inconclusive: 89.1 µM [inhibitor, single point]
Cc1ccc(CNC(=O)CN2C(=O)COc3ccccc32)cc1 | – | inconclusive: 89.1 µM [inhibitor, single point]
CCOC(=O)N1CCC(NS(=O)(=O)c2cc3c(cc2Cl)NC(=O)CO3)CC1 | – | inconclusive: 89.1 µM [inhibitor, single point]
Cc1cccc(C)c1NC(=O)Cn1cc(S(=O)(=O)Cc2ccc(F)cc2)c2ccccc21 | – | active: 28.2 µM
O=C(OCC#CCSc1nc2ccccc2s1)c1ccco1 | – | inconclusive: 15.8 µM [inhibitor, full curve]
O=C(c1cccc(C(F)(F)F)c1)c1c[nH]c(C(=O)NCCCN2CCOCC2)c1 | – | inconclusive: 50.1 µM [inhibitor, partial curve, poor fit]
CC(=O)Nc1cc(S(=O)(=O)Nc2ccccc2C)c(C)cc1C | – | inconclusive: 3.98 µM [inhibitor, full curve, poor fit]
Cc1ccccc1NC(=O)Nc1nnc(Cc2ccc([N+](=O)[O-])cc2)s1 | – | inconclusive: 89.1 µM [inhibitor, single point]
CC(=O)Oc1cc2c3c(c1)/C(=C1/SC(=S)NC1=O)C(=O)N3C(C)(C)C=C2C | – | inconclusive: 25.1 µM [inhibitor, single point]
COc1ccc(-c2nc(-c3cccc(C)c3)nc(Cl)c2C#N)cc1 | – | inconclusive: 2.51 µM [inhibitor, full curve, poor fit]

SMILES | activity change, negative = inhibition | Potency
CC1=C(C(=O)Nc2cccc(C(F)(F)F)c2)C2(CCCCCC2)OC1=O | – | inconclusive: 89.1 µM [inhibitor, partial curve]
CC(=O)C1C(c2ccc(Cl)cc2)c2c(noc2C)CC1(C)O (stereo not drawn) | inconclusive: -40.6% [inhibitor] | –
Cn1c(SCC(=O)Nc2cccc(C(=O)O)c2)nnc1-c1cc2cc(Br)ccc2o1 | – | inconclusive: 25.1 µM [inhibitor, full curve]
O=C(O)CN1C(=O)/C(=C\c2cccc(OCc3ccc(F)cc3)c2)SC1=S | – | inconclusive: 70.8 µM [inhibitor, single point]
Cc1ccc(/C=C2\C(=N)N3N=C(CC(=O)N4CCOCC4)SC3=NC2=O)o1 | – | inconclusive: 8.91 µM [inhibitor, partial curve]
O=C(CC1N=C2c3ccccc3N=C(SCC(=O)Nc3ccccc3F)N2C1=O)NCc1ccc2c(c1)OCO2 (stereo not drawn) | – | inactive
Cc1ccc(-c2nnn(CC(=O)N(Cc3cccs3)C(C(=O)NC3CCCC3)c3ccco3)n2)o1 (stereo not drawn) | – | inconclusive: 0.447 µM [inhibitor, full curve, poor fit]
CC1=CC(=C(C#N)C#N)C=C(C)N1Cc1ccc(Cl)cc1 | – | inactive
O=C(CSCc1nc2c(nnn2Cc2ccc(F)cc2)c(=O)[nH]1)Nc1c(Cl)cc(Cl)cc1Cl | – | inconclusive: 89.1 µM [inhibitor, single point]
COc1ccc(NCc2nnc(SCCN3CCCCC3)n2-c2ccc(C)cc2)cc1 | – | inconclusive: 89.1 µM [inhibitor, single point]
COc1ccccc1OC(=O)c1cc(Cl)nc2ccccc12 | – | inconclusive: 0.126 µM [inhibitor, full curve, poor fit]
COc1ccc(OC)c(S(=O)(=O)NCc2ccc3c(c2)CCN3C(=O)c2cccc(C)c2)c1 | – | inactive
COc1ccc(NC(=O)c2nnn(CC(=O)Nc3cc(C)cc(C)c3)c2N)c(OC)c1 | – | inconclusive: 22.4 µM [inhibitor, full curve]
CCN(C(=O)c1cc(S(=O)(=O)N2CCCC2)cn1C)c1ccc(OC)cc1 | – | inconclusive: 50.1 µM [inhibitor, partial curve]
COc1ccc(NC(=O)c2cn(C)c(=O)c3cc(OC)c(OC)cc23)cc1OC | – | inconclusive: 89.1 µM [inhibitor, single point]
CC(=O)Nc1ccc(S(=O)(=O)Nc2nc3ccccc3nc2Nc2ccc(O)c(C(=O)O)c2)cc1 | – | inactive
COc1cccc(NC(=O)CN2C(=O)CSc3ccc(S(=O)(=O)N4CCC(C)CC4)cc32)c1 | – | inactive
CCc1ccc(C(=O)Nc2cccc(-c3nc4cc(C(C)C)ccc4o3)c2)cc1 | – | inactive
Cc1ccc(C2=[N+]([O-])C3(CCCCC/C3=N\O)N(O)C2(C)C)o1 (stereo not drawn) | – | inconclusive: 44.7 µM [inhibitor, partial curve, poor fit]
CC(=O)Nc1cccc(NC(=O)Nc2cccc3ccccc23)c1 | – | active: 50.1 µM
COC(=O)c1ccc(NC(=O)CSc2nc3cc4ccccc4cc3[nH]2)cc1 | – | inactive
CCc1nnc(NC(=O)Nc2ccc(Cl)cc2)s1 | – | inconclusive: 17.8 µM [inhibitor, partial curve]

Among those listed so far, 2 have a cyano group.
SMILES | activity change, negative = inhibition | Potency
COc1ccc(-c2nc(-c3cccc(C)c3)nc(Cl)c2C#N)cc1 | – | inconclusive: 2.51 µM [inhibitor, full curve, poor fit]
CC1=CC(=C(C#N)C#N)C=C(C)N1Cc1ccc(Cl)cc1 | – | inactive
